Experimental data published in PubChem BioAssay AID540256 (National Center for Advancing Translational Sciences (NCATS), 2011).
Screen size: about 300,000 compounds; about 3,700 (1.2%) were called active. This list was built around the results that the source calls inconclusive (neither active nor inactive); the mix of calls is not that of the screen. Calls come from the whole dose curve; tested in HEK293 cells. Potencies of inconclusive entries are doubtful fits and often do not repeat.

Assay: qHTS for Inhibitors of binding or entry into cells for Lassa Virus; note: nearly all actives have a fitted effect of over 50% in size
Details: Lassa virus pseudotype entry inhibition, cell reporter; activity change, negative = inhibition: at 37.9 µM (top of the series) unless noted
% is set by controls: 0 for no effect and ±100 for the full control effect; potency is the fitted concentration of half-maximal effect.

Row | SMILES | Potency | activity change, negative = inhibition
1 | O=C(O)c1ccccc1/C=N/NC(=O)c1cc(-c2ccco2)nc2ccccc12 | inconclusive: 2.24 µM [inhibitor, full curve] | –
2 | O=c1c2ccccc2nc(/C=C/c2ccc3c(c2)OCO3)n1-c1cccc(O)c1 | inconclusive: 14.6 µM [inhibitor, partial curve, poor fit] | –
3 | Cc1ccc(-n2c(C)cc(C(=O)Cn3nc(C(=O)O)c4ccccc4c3=O)c2C)cc1 | inconclusive: 20 µM [inhibitor, partial curve, poor fit] | –
4 | Cc1nc2cc(NS(=O)(=O)c3c(C)c(C)cc(C)c3C)ccc2s1 | – | inactive: -7.2%
5 | CCOc1ccccc1NC(=O)CCCc1nc2ccccc2c(=O)[nH]1 | – | inactive: 2.96%
6 | CCN(CC)CCCCCC(=O)Nc1ccccc1C(=O)Nc1ccccc1 | inconclusive: 0.891 µM [inhibitor, partial curve, poor fit] | –
7 | CCOc1ccc2[nH]c(=O)c(CN(Cc3ccc(F)cc3)C(=O)c3ccco3)cc2c1 | inconclusive: 8.91 µM [inhibitor, partial curve, poor fit] | –
8 | O=C(Nc1ccc2oc(-c3cccnc3)nc2c1)c1ccc(-c2ccc(Cl)cc2)o1 | – | inactive: 19.9% [at 46.1 µM]
9 | Cc1ccc2c(CN(C)Cc3ccccc3)cc(=O)oc2c1 | inconclusive: 0.995 µM [activator, full curve, poor fit] | –
10 | COc1ccc(CNC(=O)CSc2nc3ccsc3c(=O)n2Cc2ccccc2Cl)cc1 | – | inactive: 6.57% [at 46.1 µM]
11 | O=S(=O)(NCc1ccccc1)c1ccc(-c2cnc(C3CC3)o2)cc1 | inconclusive: 2.82 µM [inhibitor, full curve, poor fit] | –
12 | CCc1ccc(CSc2nc(-c3ccc(OC)cc3)nc3c2Cc2c(CO)cnc(C)c2O3)cc1 | – | inactive: 2.45% [at 46.1 µM]
13 | Cc1ccc(C(=O)Nc2ccccc2C(=O)Nc2ccccn2)cc1Cl | – | inactive: 2.94%
14 | COc1ccc(CNC(=O)CN(c2ccccc2OC)S(=O)(=O)c2ccc(C)cc2)cc1 | inconclusive: 11.2 µM [inhibitor, partial curve, poor fit] | –
15 | CCOC(=O)c1sc(NC(=O)C2CC(=O)N(c3ccc(OC)cc3)C2)nc1C (stereo not drawn) | inconclusive: 7.08 µM [inhibitor, partial curve] | –
16 | CCC/C(O)=C1\C(=O)CC(C)(C)CC1=Nc1ccc(OC)cc1 | inconclusive: 35.5 µM [inhibitor, partial curve, poor fit] | –
17 | Cc1ccc(C)c(-c2cc(C(=O)Nc3sc(C)c(C)c3C(N)=O)c3ccccc3n2)c1 | inconclusive: 20.6 µM [inhibitor, single point] | –
18 | COc1cccc(CN(CC(=O)NCc2ccc(F)cc2)C(=O)c2ccco2)c1 | inconclusive: 15.8 µM [inhibitor, partial curve] | –
19 | CC(=O)Nc1ccc(NS(=O)(=O)c2ccc3ccccc3c2)cc1 | inconclusive: 29.1 µM [inhibitor, single point] | –
20 | CCCOc1ccc(NC(=O)CC2C(=O)N(C)C(=S)N2Cc2cccs2)cc1 (stereo not drawn) | inconclusive: 35.5 µM [inhibitor, single point] | –
21 | O=C(NNc1ccc([N+](=O)[O-])cc1[N+](=O)[O-])c1ccco1 | inconclusive: 17.8 µM [inhibitor, single point] | –

Four records drawn at random from those above:
Row | SMILES | Potency | activity change, negative = inhibition
2 | O=c1c2ccccc2nc(/C=C/c2ccc3c(c2)OCO3)n1-c1cccc(O)c1 | inconclusive: 14.6 µM [inhibitor, partial curve, poor fit] | –
20 | CCCOc1ccc(NC(=O)CC2C(=O)N(C)C(=S)N2Cc2cccs2)cc1 (stereo not drawn) | inconclusive: 35.5 µM [inhibitor, single point] | –
21 | O=C(NNc1ccc([N+](=O)[O-])cc1[N+](=O)[O-])c1ccco1 | inconclusive: 17.8 µM [inhibitor, single point] | –
15 | CCOC(=O)c1sc(NC(=O)C2CC(=O)N(c3ccc(OC)cc3)C2)nc1C (stereo not drawn) | inconclusive: 7.08 µM [inhibitor, partial curve] | –

(listing goes on)

Row | SMILES | Potency | activity change, negative = inhibition
22 | Cc1ccc(CCNC(=O)Cn2cccc2)cc1 | inconclusive: 6.51 µM [activator, single point] | –
23 | CC(NC(=O)c1ccc2c(c1)N(Cc1ccc(Cl)cc1)C(=O)c1ccccc1S2(=O)=O)c1ccccc1 (stereo not drawn) | inconclusive: 3.55 µM [inhibitor, partial curve, poor fit] | –
24 | COc1ccc(C(=O)Cn2c(=N)n(C)c3ccccc32)cc1 | inconclusive: 0.316 µM [activator, full curve, poor fit] | –
25 | O=[N+]([O-])c1ccc(SCCc2ccccn2)cc1 | – | inactive: 7.83%
26 | CCNC(=O)NC(=O)COC(=O)c1ccccc1SCC(=O)NC(=O)NCC | inconclusive: 0.447 µM [activator, partial curve, poor fit] | –
27 | CCOC(=O)C(NC(C)=O)C(OC(C)=O)c1cccc(N(CCCl)CCCl)c1 (stereo not drawn) | inconclusive: 25.1 µM [inhibitor, partial curve, poor fit] | –
28 | CCOC(=O)C1(C)NC(c2ccccc2F)C2C(=O)N(c3cccc(C(C)=O)c3)C(=O)C21 (stereo not drawn) | inconclusive: 0.259 µM [activator, full curve, poor fit] | –
29 | COc1ccc(NC(=O)ON=C2c3ccccc3-c3ccccc32)cc1 | inconclusive: 0.891 µM [activator, full curve, poor fit] | –
30 | O=C(CSC1=NS(=O)(=O)c2cc(Cl)ccc2N1)c1ccc(Cl)cc1 | inconclusive: 2.82 µM [activator, single point] | –
31 | CCCN1Cc2cccc(C(=O)NC(C)c3cccs3)c2C1=O (stereo not drawn) | inconclusive: 0.291 µM [inhibitor, partial curve, poor fit] | –
32 | CC1(C)CC2CC(C)(CN2S(=O)(=O)c2ccc(C(=O)Nc3cccc(S(=O)(=O)N4CCOCC4)c3)cc2)C1 (stereo not drawn) | inconclusive: 5.17 µM [inhibitor, partial curve] | –
33 | c1ccc(-c2nnc(CN3CCN(c4ccccc4)CC3)o2)cc1 | inconclusive: 3.55 µM [activator, full curve] | –
34 | CCC(=O)Nc1nc2cc(OC)ccc2s1 | inconclusive: 6.51 µM [activator, single point] | –
35 | O=c1c2sc3nc(N4CCOCC4)c4c(c3c2nnn1Cc1ccccc1)CCCC4 | – | inactive: 16.6%
36 | COCCOC(=O)C1=C(C)NC2=C(C(=O)CC(c3cccs3)C2)C1c1ccsc1 (stereo not drawn) | inconclusive: 28.2 µM [inhibitor, partial curve, poor fit] | –
37 | CCn1ccnc1CNC(=O)c1ccc2oc(C(C)C)nc2c1 | – | inactive: -1.39% [at 46.1 µM]
38 | Cc1nc(C)c(C(=O)NN=Cc2ccc(N(CCCl)CCCl)cc2)s1 | active: 7.08 µM | –
39 | Cn1sc(NC(=O)c2ccc(Cl)cc2)nc1=O | – | inactive: -14.7%
40 | O=C(/C=C/c1ccc([N+](=O)[O-])cc1)Nc1cccc(S(=O)(=O)NC2=NCCCCC2)c1 | inconclusive: 35.5 µM [inhibitor, single point] | –
41 | Cc1c2cnn(-c3ccccc3)c(=O)c2c(C)n1CCCC(=O)N1CCN(c2ncccn2)CC1 | – | inactive: 23.2%
42 | Cc1cccc(Nc2nc(-c3ccc(F)cc3)cs2)n1 | active: 12.6 µM | –

Row | SMILES | Potency | activity change, negative = inhibition
43 | CCOc1ccc(C2=Nc3ccccc3C(c3ccc(N4CCOCC4)cc3)=NN2)cc1 | inconclusive: 20.6 µM [inhibitor, single point] | –
44 | CN(C)[C@@H]1C(=O)C(C(N)=O)=C(O)[C@@]2(O)C(=O)C3=C(O)c4c(O)cccc4[C@@](C)(O)[C@H]3[C@H](O)[C@@H]12 | inconclusive: 0.996 µM [activator, full curve, poor fit] | –
45 | Cc1ccc(OS(=O)(=O)c2ccccc2)c(/C=N/N=C2\NC(=O)C(C)S2)c1 (stereo not drawn) | inconclusive: 11.2 µM [inhibitor, partial curve] | –
46 | CCOc1ccc(OCc2ccc(C(=O)OCc3ccccn3)o2)cc1 | inconclusive: 0.794 µM [activator, full curve] | –
47 | C=CCNC(=O)c1c(N)n(Cc2ccco2)c2nc3ccccc3nc12 | inconclusive: 0.116 µM [inhibitor, full curve, poor fit] | –
48 | COc1ccc(C(C(=O)NCC2CCCO2)N(Cc2cccs2)C(=O)c2snc(C(N)=O)c2N)cc1 (stereo not drawn) | inconclusive: 2.51 µM [inhibitor, full curve] | –
49 | CC(C)CNC(=O)c1cccc(NC(=O)c2ccc(NC(=O)c3ccco3)cc2)c1 | inconclusive: 32.6 µM [inhibitor, single point] | –
50 | C=CCn1c2ccccc2c2nnc(SCc3[nH]c(=O)[nH]c3C(=O)CCCCC(=O)OCC)nc21 | inconclusive: 29.1 µM [inhibitor, single point] | –
51 | CCOC(=O)Cc1csc(NS(=O)(=O)c2ccc([N+](=O)[O-])cc2)n1 | – | inactive: -5.32%
52 | N#CC(=C1CCCC1)c1nc(-c2ccccc2)cs1 | – | inactive: -2.31%
53 | Cc1ccc(N2CCN(C(=O)c3cc(S(=O)(=O)N4CCCCC4)c[nH]3)CC2)c(C)c1 | – | inactive: -8.47% [at 46.1 µM]
54 | COc1cc(OCc2ccccc2)c(C(=O)/C=C/c2ccc3c(c2)OCO3)c(OC)c1OC | inconclusive: 14.1 µM [inhibitor, single point] | –
55 | O=[N+]([O-])c1cc([N+](=O)[O-])c2cccnc2c1Oc1ccccc1O | inconclusive: 20 µM [inhibitor, partial curve, poor fit] | –
56 | O=C(O)c1ccc(N/N=C/c2ccc(-c3ccccc3)cc2)cc1 | inconclusive: 10 µM [inhibitor, partial curve, poor fit] | –
57 | O=C(Nc1ccc(Cc2ccncc2)cc1)C1CCC(N2C(=O)C3C4C=CC(C5CC45)C3C2=O)CC1 (stereo not drawn) | inconclusive: 29.1 µM [inhibitor, single point] | –
58 | O=C(NCCSCc1ccco1)c1ccc(CN2CCOCC2)cc1 | inconclusive: 23.1 µM [activator, partial curve, poor fit] | –
59 | CCCCOC(=O)c1ccc(NC(=O)c2cnc3n(c2=O)CCS3)cc1 | inconclusive: 10 µM [inhibitor, partial curve] | –
60 | O=C(NCc1ccc2c(c1)OCO2)C1CCCN1S(=O)(=O)c1ccc(F)cc1 (stereo not drawn) | – | inactive: -12.9%
61 | O=[N+]([O-])c1ccc(-c2cn(-c3ccccc3F)c(=S)[nH]2)cc1 | – | inactive: -0.268% [at 46.1 µM]
62 | COc1ccc(CCNC(=O)c2ccccc2NC(=O)CN2CCN(c3ccccc3O)CC2)cc1 | inconclusive: 15.8 µM [inhibitor, single point] | –
63 | Cc1ccc2nc(-c3ccc(N)cc3)sc2c1 | inconclusive: 1.26 µM [inhibitor, full curve, poor fit] | –
